No constants are given. Whether binding was seen depends on the method and setting. Some binding calls cover weakened binding; strength is not graded here. Tags and fused reporters may be left off the sequences shown.
Target: recombinant human OX2R receptor (SEQ ID NO:18) having the ECLs from OX2R and the ICLs from the mu-opioid receptor, fused to LgBiT (human)
Assay: NanoBiT (LgBiT/SmBiT) complementation in HEK 293T cells, Example 5 (assay of Example 3)

- binding: binds
B1: XA8633 fusion (XA8633 fused via a flexible linker to SmBiT) (VHH)
VHH: QVQLQESGGGLVRPGGSRRLSCVDSERTSYPMGWFRRAPGKEREFVASITWSGIDPTYADSVADRFTISRDVANNTLYLQMNSLKHEDTAVYYCAARAPVGQSSSPYDYDYWGQGTQVTVSS

— patent publication US20220276244A1
